Some of these results come from one statement about several compounds together.
Biological target: T1, human CRF receptors (Homo sapiens, UniProt P34998)
T1 construct: expressed in transfected cells
T1 sequence (P34998 24-415): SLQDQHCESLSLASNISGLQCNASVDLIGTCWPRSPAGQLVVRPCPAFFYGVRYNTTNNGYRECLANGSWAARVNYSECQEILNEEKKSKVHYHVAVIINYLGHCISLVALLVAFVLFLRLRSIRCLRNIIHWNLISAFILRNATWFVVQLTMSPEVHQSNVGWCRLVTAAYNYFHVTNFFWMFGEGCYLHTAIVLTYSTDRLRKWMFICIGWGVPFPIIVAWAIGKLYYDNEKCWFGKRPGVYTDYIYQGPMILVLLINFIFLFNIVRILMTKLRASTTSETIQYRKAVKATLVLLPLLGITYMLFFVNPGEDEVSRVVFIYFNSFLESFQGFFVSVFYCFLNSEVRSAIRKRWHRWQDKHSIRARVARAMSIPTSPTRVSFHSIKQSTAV
Experiment: CRF receptor binding activity (radioligand displacement of [125I]tyrosine-ovine CRF)
Conditions: cells stably transfected with human CRF receptors, 2 hours at 22° C.

| Structure (SMILES) | Ki [nM] |
| --- | --- |
| COCCN(CCOC)c1cc(C)nc2c(-c3c(C)cc(C)cc3C)csc12 [Compound 5] | ≤ 250 |
| COCCN(CCOC)c1cc(C)nc2c(-c3ccc(Cl)cc3Cl)csc12 [Compound 7] | ≤ 250 |
| CCCCN(CC)c1cc(C)nc2c(-c3c(C)cc(C)cc3C)csc12 [Compound 2] | ≤ 250 |
| CCCN(CC1CC1)c1cc(C)nc2c(-c3c(C)cc(C)cc3C)csc12 [Compound 3] | ≤ 250 |
| CCCN(CCC)c1cc(C)nc2c(-c3c(C)cc(C)cc3C)csc12 [Compound 1, 7-(dipropylamino)-5-methyl-3-(2',4',6'-trimethylphenyl)thieno(3,2-b-pyridine)] | ≤ 250 |
| CCCN(Cc1ccccc1)c1cc(C)nc2c(-c3c(C)cc(C)cc3C)csc12 [Compound 4, 7-(N-benzyl-N-propylamino)-5-methyl-3-(2',4',6'-trimethylphenyl)thieno(3,2-b)-pyridine] | ≤ 250 |
| CCCN(CCC)c1cc(C)nc2c(-c3ccc(Cl)cc3Cl)csc12 [Compound 6] | ≤ 250 |
| CSc1cc(C)nc2c(-c3c(C)cc(C)cc3C)csc12 [Compound 8] | ≤ 250 |

Source: patent US6211195A, “CRF antagonistic thiophenopyridines” (Neurocrine Biosciences, Inc., priority 1999, dated 2001)
